From patent publication US10996170B2, “Device and method for imaging shortwave infrared fluorescence” (Massachusetts Institute of Technology, priority 2016, dated 2021)

Tested on: brain vasculature
Experiment: Noninvasive brain vasculature imaging through intact skin and skull (NIR vs SWIR detection)
Format: in vivo, mouse
Conditions: 0.2 mg/kg tail vein

SMILES: CC1(C)C(/C=C/C=C/C=C/C=C2\N(CCCCS(=O)(=O)O)c3ccc4ccccc4c3C2(C)C)=[N+](CCCCS(=O)(=O)[O-])c2ccc3ccccc3c21 [ICG, indocyanine green]
- image contrast (coefficient of variation: standard deviation of pixel intensity / mean pixel intensity), SWIR image (808 nm excitation, InGaAs camera 1300-1620 nm): 0.29
- image contrast (coefficient of variation: standard deviation of pixel intensity / mean pixel intensity), NIR image (808 nm excitation, silicon camera at NIR wavelengths): 0.20
- apparent vessel width (full width at half maximum), SWIR image (InGaAs camera 1300-1620 nm): 210 μm
- SWIR image contrast increase over NIR image (SWIR 1300-1620 nm vs NIR): ~50%
- apparent vessel width (full width at half maximum), NIR image (silicon camera NIR): 430 μm
